# Measurements: paper PMC5824891
# These are yes or no findings as the source states them, for the method shown. Binding seen in cells or lysates may run through a third protein. Some results given as binding are weak or reduced against the parent protein; the word gives no strength. For some assays here: Sequences can lack the tags named with a protein.
# B1: endogenous Vps8 (protein, UniProt Q8N3P4 1-1428)
# chain: MENEPDHENVEQSLCAKTSEEELNKSFNLEASLSKFSYIDMDKELEFKNDLIDDKEFDIPQVDTPPTLESILNETDDEDESFILEDPTLLNIDTIDSHSYDTSSVASSDSGDRTNLKRKKKLPDSFSLHGSVMRHSLLKGISAQIVSAADKVDAGLPTAIAVSSLIAVGTSHGLALIFGKDQNQALRLCLGSTSVGGQYGAISALSINNDCSRLLCGFAKGQITMWDLASGKLLRSITDAHPPGTAILHIKFTDDPTLAICNDSGGSVFELTFKRVMGVRTCESRCLFSGSKGEVCCIEPLHSKPELKDHPITQFSLLAMASLTKILVIGLKPSLKVWMTFPYGRMDPSSVPLLAWHFVAVQNYVNPMLAFCRGDVVHFLLVKRDESGAIHVTKQKHLHLYYDLINFTWINSRTVVLLDSVEKLHVIDRQTQEELETVEISEVQLVYNSSHFKSLATGGNVSQALALVGEKACYQSISSYGGQIFYLGTKSVYVMMLRSWRERVDHLLKQDCLTEALALAWSFHEGKAKAVVGLSGDASKRKAIVADRMVEILFHYADRALKKCPDQGKIQVMEQHFQDMVPVIVDYCLLLQRKDLLFSQMYDKLSENSVAKGVFLECLEPYILSDKLVGITPQVMKDLIVHFQDKKLMENVEALIVHMDITSLDIQQVVLMCWENRLYDAMIYVYNRGMNEFISPMEKLFRVIAPPLNAGKTLTDEQVVMGNKLLVYISCCLAGRAYPLGDIPEDLVPLVKNQVFEFLIRLHSAEASPEEEIYPYIRTLLHFDTREFLNVLALTFEDFKNDKQAVEYQQRIVDILLKVMVENSDFTPSQVGCLFTFLARQLAKPDNTLFVNRTLFDQVLEFLCSPDDDSRHSERQQVLLELLQAGGIVQFEESRLIRMAEKAEFYQICEFMYEREHQYDKIIDCYLRDPLREEEVFNYIHNILSIPGHSAEEKQSVWQKAMDHIEELVSLKPCKAAELVATHFSGHIETVIKKLQNQVLLFKFLRSLLDPREGIHVNQELLQISPCITEQFIELLCQFNPTQVIETLQVLECYRLEETIQITQKYQLHEVTAYLLEKKGDIHGAFLIMLERLQSKLQEVTHQGENTKEDPSLKDVEDTMVETIALCQRNSHNLNQQQREALWFPLLEAMMAPQKLSSSAIPHLHSEALKSLTMQVLNSMAAFIALPSILQRILQDPVYGKGKLGEIQGLILGMLDTFNYEQTLLETTTSLLNQDLHWSLCNLRASVTRGLNPKQDYCSICLQQYKRRQEMADEIIVFSCGHLYHSFCLQNKECTVEFEGQTRWTCYKCSSSNKVGKLSENSSEIKKGRITPSQVKMSPSYHQSKGDPTAKKGTSEPVLDPQQIQAFDQLCRLYRGSSRLALLTELSQNRSSESYRPFSGSQSAPAFNSIFQNENFQLQLIPPPVTED
# B2: endogenous Vps8, Q8N3P4 1-1428 (protein)
# chain: B1 chain
# B3: Vps8 (proximity ligation assay in HeLa cells) (protein, UniProt Q8N3P4 1-1428)
# chain: B1 chain
# Legend:
# [1] = molecular target: T1, GFP-Vps11 (UniProt Q9H270); assay: co-IP; IP of GFP-tagged subunits overexpressed in HeLa cells, blot for endogenous Vps8; lysis buffer 40 mM TRIS pH 7.4, 100 mM NaCl, 0.1% TX-100, 5 mM EDTA; protein A beads with antibody, 1 h at 4 °C
# T1 sequence: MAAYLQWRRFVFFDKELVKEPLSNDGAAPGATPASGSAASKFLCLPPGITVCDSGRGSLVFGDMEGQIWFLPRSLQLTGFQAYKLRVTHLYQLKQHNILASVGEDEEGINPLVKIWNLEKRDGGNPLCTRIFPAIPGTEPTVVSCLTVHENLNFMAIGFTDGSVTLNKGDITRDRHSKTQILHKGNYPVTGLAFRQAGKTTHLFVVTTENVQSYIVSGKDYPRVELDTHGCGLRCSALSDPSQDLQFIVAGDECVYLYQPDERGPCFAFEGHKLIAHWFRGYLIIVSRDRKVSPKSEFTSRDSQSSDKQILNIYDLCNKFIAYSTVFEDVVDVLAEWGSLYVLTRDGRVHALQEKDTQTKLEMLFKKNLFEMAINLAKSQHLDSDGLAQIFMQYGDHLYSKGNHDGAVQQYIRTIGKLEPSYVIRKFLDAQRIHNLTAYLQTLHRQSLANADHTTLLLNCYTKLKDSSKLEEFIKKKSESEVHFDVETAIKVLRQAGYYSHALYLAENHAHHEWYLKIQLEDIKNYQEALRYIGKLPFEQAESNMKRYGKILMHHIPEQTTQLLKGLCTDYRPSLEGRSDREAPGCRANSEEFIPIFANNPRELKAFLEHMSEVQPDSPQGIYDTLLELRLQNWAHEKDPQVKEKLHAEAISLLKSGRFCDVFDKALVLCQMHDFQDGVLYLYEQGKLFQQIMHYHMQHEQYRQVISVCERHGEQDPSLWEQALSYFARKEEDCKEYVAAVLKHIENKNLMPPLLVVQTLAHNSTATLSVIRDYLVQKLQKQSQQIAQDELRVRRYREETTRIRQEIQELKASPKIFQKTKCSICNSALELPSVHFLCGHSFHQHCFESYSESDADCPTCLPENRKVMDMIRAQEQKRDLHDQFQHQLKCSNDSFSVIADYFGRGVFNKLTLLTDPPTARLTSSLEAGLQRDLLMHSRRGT
# [2] = molecular target: T2, GFP-Vps3 (UniProt Q8WUH2); assay: as above
# T2 sequence: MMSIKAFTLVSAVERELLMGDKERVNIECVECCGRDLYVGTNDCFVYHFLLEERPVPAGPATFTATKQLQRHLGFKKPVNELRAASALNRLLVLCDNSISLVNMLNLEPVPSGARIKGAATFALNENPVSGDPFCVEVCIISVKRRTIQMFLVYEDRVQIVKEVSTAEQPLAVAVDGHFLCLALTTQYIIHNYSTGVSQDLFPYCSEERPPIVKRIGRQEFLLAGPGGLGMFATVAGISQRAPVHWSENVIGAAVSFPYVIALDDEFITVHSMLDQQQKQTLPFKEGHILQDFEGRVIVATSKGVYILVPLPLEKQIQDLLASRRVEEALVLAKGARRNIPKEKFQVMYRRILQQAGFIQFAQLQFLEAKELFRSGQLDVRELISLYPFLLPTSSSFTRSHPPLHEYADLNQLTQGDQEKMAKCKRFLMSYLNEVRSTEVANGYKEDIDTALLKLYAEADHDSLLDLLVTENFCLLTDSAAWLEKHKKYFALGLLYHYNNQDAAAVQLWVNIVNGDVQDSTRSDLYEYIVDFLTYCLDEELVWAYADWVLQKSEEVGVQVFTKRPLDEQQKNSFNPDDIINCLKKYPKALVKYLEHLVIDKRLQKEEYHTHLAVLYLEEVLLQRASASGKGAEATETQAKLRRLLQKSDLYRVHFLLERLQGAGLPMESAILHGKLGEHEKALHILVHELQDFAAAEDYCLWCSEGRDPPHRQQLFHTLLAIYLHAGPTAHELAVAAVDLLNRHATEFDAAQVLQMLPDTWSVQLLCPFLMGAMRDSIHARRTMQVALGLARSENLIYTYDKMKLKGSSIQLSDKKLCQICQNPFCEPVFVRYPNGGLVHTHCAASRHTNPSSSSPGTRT
# [3] = molecular target: T3, GFP-tagged Vps16 (UniProt Q9H269); assay: as above
# T3 sequence: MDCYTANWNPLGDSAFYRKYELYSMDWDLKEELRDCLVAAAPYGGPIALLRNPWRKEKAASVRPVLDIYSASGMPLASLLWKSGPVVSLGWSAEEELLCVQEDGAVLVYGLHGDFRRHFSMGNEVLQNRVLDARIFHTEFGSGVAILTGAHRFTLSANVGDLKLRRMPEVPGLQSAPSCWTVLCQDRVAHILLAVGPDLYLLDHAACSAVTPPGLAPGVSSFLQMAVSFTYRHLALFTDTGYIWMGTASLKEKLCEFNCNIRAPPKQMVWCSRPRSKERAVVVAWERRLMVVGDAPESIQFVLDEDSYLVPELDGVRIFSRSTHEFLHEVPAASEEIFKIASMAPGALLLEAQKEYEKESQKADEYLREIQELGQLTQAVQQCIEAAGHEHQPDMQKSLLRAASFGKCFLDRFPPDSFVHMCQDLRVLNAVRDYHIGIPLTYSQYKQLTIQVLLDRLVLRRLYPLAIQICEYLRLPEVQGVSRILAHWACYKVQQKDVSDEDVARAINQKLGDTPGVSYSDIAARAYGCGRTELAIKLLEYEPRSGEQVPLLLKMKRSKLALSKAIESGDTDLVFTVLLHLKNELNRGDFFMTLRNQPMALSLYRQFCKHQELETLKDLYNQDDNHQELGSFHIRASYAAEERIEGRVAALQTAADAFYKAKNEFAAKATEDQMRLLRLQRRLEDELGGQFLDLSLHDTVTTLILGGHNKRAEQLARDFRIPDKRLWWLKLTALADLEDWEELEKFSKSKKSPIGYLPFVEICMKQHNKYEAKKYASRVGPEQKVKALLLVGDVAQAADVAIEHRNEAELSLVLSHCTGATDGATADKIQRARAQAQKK
# [4] = molecular target: T4, GFP-tagged Vps41, P49754; assay: as above; settings: remark: other sources report otherwise
# T4 chain: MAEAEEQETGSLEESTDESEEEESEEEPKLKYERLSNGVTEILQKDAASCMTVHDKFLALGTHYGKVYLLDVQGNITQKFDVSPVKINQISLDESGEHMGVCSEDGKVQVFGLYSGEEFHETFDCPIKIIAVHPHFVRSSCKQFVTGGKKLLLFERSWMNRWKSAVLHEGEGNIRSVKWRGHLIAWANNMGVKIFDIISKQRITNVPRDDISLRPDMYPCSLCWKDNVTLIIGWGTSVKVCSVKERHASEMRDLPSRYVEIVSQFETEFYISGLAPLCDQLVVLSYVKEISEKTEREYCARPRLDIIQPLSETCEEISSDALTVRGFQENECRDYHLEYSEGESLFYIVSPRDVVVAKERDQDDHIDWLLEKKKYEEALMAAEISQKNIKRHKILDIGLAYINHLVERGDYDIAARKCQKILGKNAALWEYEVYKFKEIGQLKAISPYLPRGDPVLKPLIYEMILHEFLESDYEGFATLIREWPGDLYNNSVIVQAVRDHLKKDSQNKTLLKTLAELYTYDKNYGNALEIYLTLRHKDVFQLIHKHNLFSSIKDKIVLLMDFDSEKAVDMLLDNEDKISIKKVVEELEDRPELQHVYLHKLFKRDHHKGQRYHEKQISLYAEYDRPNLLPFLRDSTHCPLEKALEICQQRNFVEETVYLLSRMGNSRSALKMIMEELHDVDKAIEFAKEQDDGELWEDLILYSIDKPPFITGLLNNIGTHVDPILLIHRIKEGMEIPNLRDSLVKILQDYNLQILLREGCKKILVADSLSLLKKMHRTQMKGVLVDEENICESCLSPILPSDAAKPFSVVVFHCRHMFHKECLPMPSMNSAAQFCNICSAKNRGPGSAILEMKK
# [5] = molecular target: T5, Vps3 (proximity ligation assay in HeLa cells) (UniProt Q8WUH2); assay: proximity ligation; PLA on fixed, permeabilised HeLa cells with mouse PLUS and rabbit MINUS probes; signal corrected for protein expression and cell size
# T5 sequence: T2 sequence
binder,measurement,setting,value
B1,binding,[1],binds
same,binding,[2],binds
same,binding,[3],binds
B2,binding,[4],binds
B3,binding,[5],binds
